For experiment [1], the target named is GST-tagged zebrafish Pin1 (zebrafish). As to the kind of experiment: pull-down; recombinant GST-zebrafish Pin1 immobilized on Glutathione Sepharose 4B beads, incubated with HEK 293T lysates overexpressing HA-Nrd or Nrd mutants, 4°C, 3 h; blot with anti-HA; only the target purified.
The target of experiment [2] is FLAG-tagged zebrafish Pin1 (zebrafish). The experiment can be described thus: co-IP; HEK 293T cells co-transfected with FLAG-zPin1 and HA-NeuroD; lysates (50 mM Hepes pH 7.4, 10% glycerol, 1% Triton X-100, 100 mM NaCl, 0.5 mM MgCl2, protease and phosphatase inhibitors) incubated with FLAG-M2 beads 1.5 h at 4°C; blot with anti-HA.

Amino acid sequences for entries named in this document (tags omitted).
UniProt O42202: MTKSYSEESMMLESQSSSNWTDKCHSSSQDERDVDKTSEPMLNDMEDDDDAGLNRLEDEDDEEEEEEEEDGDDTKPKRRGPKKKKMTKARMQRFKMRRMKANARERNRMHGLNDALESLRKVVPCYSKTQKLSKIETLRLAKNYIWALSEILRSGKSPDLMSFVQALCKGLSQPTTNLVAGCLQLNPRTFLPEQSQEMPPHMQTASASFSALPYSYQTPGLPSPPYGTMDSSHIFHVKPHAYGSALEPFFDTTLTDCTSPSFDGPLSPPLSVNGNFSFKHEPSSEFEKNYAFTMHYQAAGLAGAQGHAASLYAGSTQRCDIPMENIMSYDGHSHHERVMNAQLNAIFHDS

No constants are given. Whether binding was seen depends on the method and setting. In cells and extracts the contact can be indirect. Some binding calls cover weakened binding; strength is not graded here.

Take “HA-tagged Nrd (NeuroD) (from UniProt O42202 1-350)”: the binding entry in experiment [1] and in experiment [2] was “binds” each time.
